Results reported in article PMC7819943, “Rice protein-binding microarrays: a tool to detect cis-acting elements near promoter regions in rice”.
Some of the results follow.

By UniProt entry, the sequences of proteins in these tests, tags left out.
UniProt Q0JBA9, entry or part of it: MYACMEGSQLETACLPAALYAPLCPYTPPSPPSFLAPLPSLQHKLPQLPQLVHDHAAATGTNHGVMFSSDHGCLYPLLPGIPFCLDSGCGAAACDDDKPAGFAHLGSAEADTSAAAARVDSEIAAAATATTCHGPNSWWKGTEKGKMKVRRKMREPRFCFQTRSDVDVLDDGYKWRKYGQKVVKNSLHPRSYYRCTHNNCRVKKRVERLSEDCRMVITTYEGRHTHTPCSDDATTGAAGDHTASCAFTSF

molecular target: OsWRKY34 (Oryza sativa, UniProt Q0JBA9 1-250); assay: protein-binding microarray (RPBM); PBS, 2% BSA, 51.3 ng/ul salmon testes DNA, 50 uM zinc acetate, 200 nM TF, 25 C, 1 h; high values mean tight binding; conditions: protein: recombinant; tags: N-terminal polyhistidine and DsRed monomer fusion (pET32a); label: CyDye5-dUTP incorporated in the synthesized complementary strand; 3' TTTTT single-stranded linker to array surface; dsDNA, one strand shown
Procedure, shortened: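 Polyhistidine-tagged DsRed fusions of transcription factors, joined at the N-terminus, were expressed in E. coli BL21-CodonPlus and isolated on Ni–NTA. They were incubated at 200 nM for 1 h at 25 °C on a custom Agilent array, double-stranded and BSA-blocked, in PBS with 2% BSA, salmon testes DNA and 50 µM zinc acetate. The binding signal is per-feature fluorescence intensity (arbitrary units) read on an Axon 4000B scanner after washing.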

Sequence | binding signal
ATATATATATATATATATATATATATATATAATCTCTCCTCGGAGTCACCTAGTGCAG | 9910 fluorescence intensity (a.u.)
GCTATTATACCTGCTCTAATAACTTTGTTTTACTGCTAATCGGAGTCACCTAGTGCAG | 8030 fluorescence intensity (a.u.)
CAAAGAGGAAAGCCAAACGACCCAACCGCATATCCATTTCCGGAGTCACCTAGTGCAG | 10700 fluorescence intensity (a.u.)
GAGTTATAAGTGGGAGGAGGGGATAGAAGAAGGCCTAGTTCGGAGTCACCTAGTGCAG | 9150 fluorescence intensity (a.u.)
GCGTTTTCCAAGTCCAATATCTTGACTTCCCACAGGTGACCGGAGTCACCTAGTGCAG | 11400 fluorescence intensity (a.u.)
GGAGTTTCTTTTTGTCATACTCTGTTTTTCAGCTTTAGCTCGGAGTCACCTAGTGCAG | 9760 fluorescence intensity (a.u.)
CCGGCCATCGCTCGCTTTTCTCCGCCGTTGACGACCACTCCGGAGTCACCTAGTGCAG | 10400 fluorescence intensity (a.u.)
ATTTTGAAGTTGATTTTAGAGTTTGTCGTAGTAGTTTATTCGGAGTCACCTAGTGCAG | 8220 fluorescence intensity (a.u.)
AACCGCTGCATCTTGCCAAATGCTTCTCACTCCACGCATTCGGAGTCACCTAGTGCAG | 11700 fluorescence intensity (a.u.)
CTACTCTCTCTGTCCCACAATATAAGGAATTTTGAGTTTTCGGAGTCACCTAGTGCAG | 9090 fluorescence intensity (a.u.)
ATATCCGTAGGCCCTAATTGCTTTCAATATGTCCCTTATTCGGAGTCACCTAGTGCAG | 9610 fluorescence intensity (a.u.)
TTTTGTCTTCTATTTCCACCACAGACATAAACTCTATTTTCGGAGTCACCTAGTGCAG | 9930 fluorescence intensity (a.u.)
TTCCCTTTTGTTTTCTATTAGATGATCGTCCAGGCGATCTCGGAGTCACCTAGTGCAG | 9840 fluorescence intensity (a.u.)
CTGTGTTGGACCAGCTCTCTTCTGATTGACTTCTTCCAATCGGAGTCACCTAGTGCAG | 9930 fluorescence intensity (a.u.)
CCTCTCTTAGCTTCTCCTAATTTTTTCGCTAGTTTCGTTTCGGAGTCACCTAGTGCAG | 10500 fluorescence intensity (a.u.)
GTTTCACCGTTCCCACCACGCACCCCTCTATTTATCCCCGCGGAGTCACCTAGTGCAG | 8050 fluorescence intensity (a.u.)
TTTATATACTCTCTCCGTTCAAATTAATCACACATATGTACGGAGTCACCTAGTGCAG | 8560 fluorescence intensity (a.u.)
TCGCATATGTCCTCTGACCGCCTGACATTCCATTGTGTTTCGGAGTCACCTAGTGCAG | 9990 fluorescence intensity (a.u.)
AGATTGTGCATCATGACTTATCCTGAACGTTGTTGACCTTCGGAGTCACCTAGTGCAG | 8960 fluorescence intensity (a.u.)
TGGGCCGGGTTTGGTGGTTGCTTCATGATGTGATTTAAACCGGAGTCACCTAGTGCAG | 8170 fluorescence intensity (a.u.)
TCGCTGTCCCTCGCTCACTCTCACAGTCTCACTCCGGCCGCGGAGTCACCTAGTGCAG | 10200 fluorescence intensity (a.u.)

As a working copy, part of the list above.
Sequence | binding signal
ATATATATATATATATATATATATATATATAATCTCTCCTCGGAGTCACCTAGTGCAG | 9910 fluorescence intensity (a.u.)
GCTATTATACCTGCTCTAATAACTTTGTTTTACTGCTAATCGGAGTCACCTAGTGCAG | 8030 fluorescence intensity (a.u.)
CAAAGAGGAAAGCCAAACGACCCAACCGCATATCCATTTCCGGAGTCACCTAGTGCAG | 10700 fluorescence intensity (a.u.)
GAGTTATAAGTGGGAGGAGGGGATAGAAGAAGGCCTAGTTCGGAGTCACCTAGTGCAG | 9150 fluorescence intensity (a.u.)
GCGTTTTCCAAGTCCAATATCTTGACTTCCCACAGGTGACCGGAGTCACCTAGTGCAG | 11400 fluorescence intensity (a.u.)
GGAGTTTCTTTTTGTCATACTCTGTTTTTCAGCTTTAGCTCGGAGTCACCTAGTGCAG | 9760 fluorescence intensity (a.u.)
CCGGCCATCGCTCGCTTTTCTCCGCCGTTGACGACCACTCCGGAGTCACCTAGTGCAG | 10400 fluorescence intensity (a.u.)
ATTTTGAAGTTGATTTTAGAGTTTGTCGTAGTAGTTTATTCGGAGTCACCTAGTGCAG | 8220 fluorescence intensity (a.u.)

Going on with the list:

Sequence | binding signal
TTTTCTTCTTTACTACTTTCTCTGTTCCCCTCGCCGTCGCCGGAGTCACCTAGTGCAG | 9240 fluorescence intensity (a.u.)
AACATACAACACAACGATCTTCCTTGATTGTTATACCTCTCGGAGTCACCTAGTGCAG | 8430 fluorescence intensity (a.u.)
ATTGCCAGCAGTTACATTCTTGTTTGTATCTTCATAATCTCGGAGTCACCTAGTGCAG | 8440 fluorescence intensity (a.u.)
ATACATTGTTTTTCTAACCCCGCTTAAGTATTCATGTTATCGGAGTCACCTAGTGCAG | 8870 fluorescence intensity (a.u.)
GTCGTCGTCGTCGTCGTCCCGTCTCCCGAACTCGCCGTGCCGGAGTCACCTAGTGCAG | 8150 fluorescence intensity (a.u.)
GCTCACCCTGATTACATTAATCTATCAATCACCATGCATTCGGAGTCACCTAGTGCAG | 9510 fluorescence intensity (a.u.)
TTCCGCGAACCCATTCCCATTCCCATTCCCACTCTCCCTCCGGAGTCACCTAGTGCAG | 8480 fluorescence intensity (a.u.)
GAGCTGGTCCTGGCATCGTTTGAATGCCACTCATCACTGCCGGAGTCACCTAGTGCAG | 8110 fluorescence intensity (a.u.)
TGCTGTTCCATTTTCCATACAGCCATTCTTTTTTTCTGCTCGGAGTCACCTAGTGCAG | 9250 fluorescence intensity (a.u.)
TCTCCATCCCTCGCATCCCGTGGACCCATTCCACCCAGGACGGAGTCACCTAGTGCAG | 8150 fluorescence intensity (a.u.)
TCAAGACTGCTTCCAGCCATTTCCAATCACATTCTTAGTCCGGAGTCACCTAGTGCAG | 8540 fluorescence intensity (a.u.)
CATTTTTCTCTTCATCGTTCAGTTTTTTCCTTTTTCCTGTCGGAGTCACCTAGTGCAG | 11700 fluorescence intensity (a.u.)
CGCCGTTGACTTTTTAAAATTTGTTTGACCGTTCGTCTTACGGAGTCACCTAGTGCAG | 30700 fluorescence intensity (a.u.)
GCTCGGGCATCCTTTTTAAGGGCTCGGGGCGGCGGAATCACGGAGTCACCTAGTGCAG | 8290 fluorescence intensity (a.u.)
ATCGGTGGTGGTGGTGGTGGTGGCCATGAGTCTCGTTTGACGGAGTCACCTAGTGCAG | 27500 fluorescence intensity (a.u.)
ATCCGGTTTTTTTCGTTTTTGCCAGTTAGCCTAATTCTGCCGGAGTCACCTAGTGCAG | 9250 fluorescence intensity (a.u.)
GCCAGAGCCGTCCGTTGTGTTGTGTGTCACCTTTCCGCGCCGGAGTCACCTAGTGCAG | 11900 fluorescence intensity (a.u.)
ATAAAGTCGTCGTCGTCTTCCTCTCTCTCTCTCTCTCTCTCGGAGTCACCTAGTGCAG | 8630 fluorescence intensity (a.u.)
GGATTAGGTGAACTTTCAGGGGTACACAGGGGTTTTCTTTCGGAGTCACCTAGTGCAG | 13200 fluorescence intensity (a.u.)
CCCCGTCCCGTACACGTCTATCCAAATGGCCACGTTAATCCGGAGTCACCTAGTGCAG | 8020 fluorescence intensity (a.u.)
AGGTGGTGGTGGTGGGGAAGGAATTAATCGATCGATCGAGCGGAGTCACCTAGTGCAG | 13000 fluorescence intensity (a.u.)
